# Several values for one entry are separate records, joined by “and”; a condition that tells them apart may be missing. Equal values may be shown once. The inconclusive results got no clear call from the source; some entries with a clear call stand among them for comparison. For part of these data: A potency beside an inconclusive call is a rough fit, not a confirmed value. Where a structure was tested more than once in an assay, its records may differ in their call. Activity calls are given as the source filed them. The calls were made as follows: active = hit-call score of the fitted dose curve at least 0.9, where 1 is the maximum; inconclusive = response in the unintended direction; inactive = score below 0.9.
# Amino acid sequences for entries named in this document (tags omitted). A change or cut given only in a name is not applied to a line headed by its entry.
# UniProt P19793: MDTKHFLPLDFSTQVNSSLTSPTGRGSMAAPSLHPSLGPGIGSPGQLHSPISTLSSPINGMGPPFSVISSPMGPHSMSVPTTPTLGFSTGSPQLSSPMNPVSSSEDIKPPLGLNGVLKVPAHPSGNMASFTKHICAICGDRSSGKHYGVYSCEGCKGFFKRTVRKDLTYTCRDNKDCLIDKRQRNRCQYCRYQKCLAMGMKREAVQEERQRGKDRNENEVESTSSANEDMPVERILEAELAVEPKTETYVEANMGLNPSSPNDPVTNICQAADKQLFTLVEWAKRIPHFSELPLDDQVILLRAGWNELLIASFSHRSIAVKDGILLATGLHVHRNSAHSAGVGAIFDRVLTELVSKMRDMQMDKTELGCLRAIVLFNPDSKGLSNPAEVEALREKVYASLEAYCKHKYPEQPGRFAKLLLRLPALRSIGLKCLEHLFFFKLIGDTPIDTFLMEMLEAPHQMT
# UniProt P04637, whole entry, looked up: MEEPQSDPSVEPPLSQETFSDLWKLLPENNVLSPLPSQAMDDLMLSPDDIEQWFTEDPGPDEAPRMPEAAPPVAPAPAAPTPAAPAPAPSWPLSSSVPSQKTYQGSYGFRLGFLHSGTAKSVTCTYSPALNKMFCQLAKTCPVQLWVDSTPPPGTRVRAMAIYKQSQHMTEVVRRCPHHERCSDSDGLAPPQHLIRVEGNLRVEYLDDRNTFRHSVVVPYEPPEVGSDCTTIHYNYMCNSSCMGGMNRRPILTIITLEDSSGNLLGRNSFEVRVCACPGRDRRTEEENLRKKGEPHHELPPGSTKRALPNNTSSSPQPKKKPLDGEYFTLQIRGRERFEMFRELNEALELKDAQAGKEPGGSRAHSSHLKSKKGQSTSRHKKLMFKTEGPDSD
# UniProt P37231: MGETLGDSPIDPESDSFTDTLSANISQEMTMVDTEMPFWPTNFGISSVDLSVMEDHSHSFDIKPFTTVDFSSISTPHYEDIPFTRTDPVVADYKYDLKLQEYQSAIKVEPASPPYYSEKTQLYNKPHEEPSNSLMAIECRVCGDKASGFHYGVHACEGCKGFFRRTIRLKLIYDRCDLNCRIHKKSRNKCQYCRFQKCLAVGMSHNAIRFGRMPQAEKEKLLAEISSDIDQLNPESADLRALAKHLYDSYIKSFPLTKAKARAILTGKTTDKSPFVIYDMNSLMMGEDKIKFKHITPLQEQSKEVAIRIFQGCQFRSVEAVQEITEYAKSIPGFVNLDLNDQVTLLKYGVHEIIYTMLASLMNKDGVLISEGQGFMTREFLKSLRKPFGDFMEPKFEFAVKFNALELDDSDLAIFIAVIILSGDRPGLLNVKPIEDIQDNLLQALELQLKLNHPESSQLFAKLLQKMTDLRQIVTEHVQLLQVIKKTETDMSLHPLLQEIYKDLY
# Tests used:
# [1] = biological target: Retinoic acid receptor RXR-alpha (Homo sapiens) (UniProt P19793); assay: OT_NURR1_NURR1RXRa_0480: Odyssey Thera (OT) 8-hour HEK293T Protein Complementation Assay for Nurr1/retinoid X receptor (RXR) (AID 2283385)
# Procedure, shortened: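 Read-out: fluorescence from protein-fragment complementation between Nurr1 and RXRα in human HEK293T cells, 8 h after dosing. DMSO served as negative control; increased signal counted as activity.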
# [2] = biological target: Retinoic acid receptor RXR-alpha (Homo sapiens) (UniProt P19793); assay: OT_NURR1_NURR1RXRa_1440: Odyssey Thera (OT) 24-hour HEK293T Protein Complementation Assay for Nurr1/retinoid X receptor (RXR) (AID 2283386)
# Procedure, shortened: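 Fluorescence PCA read-out; HEK293T; 24 h post-dose; bait/prey fused to reporter fragments; gain-of-signal fit vs DMSO negative control.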
# [3] = ATG_XTT_Cytotoxicity: Cytotoxicity Assessment in the Attagene TRANS-FACTORIAL HepG2 Assay (AID 2283584);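 as to AC50: cells exposed to compound for 24 h before reading; active means loss of viability signal versus DMSO baseline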
# Procedure, shortened: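 Viability endpoint from XTT after 24 h chemical exposure of reporter-transfected human HepG2 liver cells; signal loss fitted relative to DMSO negative control.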
# [4] = TOX21_p53_BLA_p2_viability: Viability Assessment in the Tox21 HCT-116 p53 Agonism Beta-lactamase Assay, Phase 2 (AID 2283591);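 also: compound exposure lasted 16 h at 37 °C; actives lower the ATP signal meaning cytotoxicity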
# Procedure, shortened: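 HCT116 p53-bla cells, 4000/well, dosed after 5 h plating (217-fold dilution of DMSO stocks) and incubated 16 h at 37C. Viability taken as cellular ATP by CellTiter-Glo luminescence after 30 min RT; signal loss marks cytotoxicity.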
# [5] = TOX21_p53_BLA_p3_viability: Viability Assessment in the Tox21 HCT-116 p53 Agonism Beta-lactamase Assay, Phase 3 (AID 2283593);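 also: cells exposed to compound for 16 h before reading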
# Procedure, shortened: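 HCT116 cells, 4000/well, dosed 5 h after plating by pin transfer (217-fold dilution from DMSO stock) and incubated 16 h at 37C, 5% CO2. Viability read as ATP luminescence with CellTiter-Glo after 30 min at room temperature.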
# [6] = biological target: Cellular tumor antigen p53 (Homo sapiens) (UniProt P04637); assay: TOX21_p53_BLA_p2_ratio: Tox21 HCT-116 p53 Agonism Beta-lactamase Assay, Ratio, Phase 2 (AID 2283592)
# Procedure, shortened: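 Read-out is the blue/green (460/530 nm, 405 nm excitation) ratio after 2 h CCF4-AM loading, fitted as gain versus DMSO. Compounds, pinned at 217-fold dilution from DMSO stocks, stayed 16 h on HCT-116 beta-lactamase reporter cells seeded 5 h earlier.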
# [7] = biological target: Cellular tumor antigen p53 (Homo sapiens) (UniProt P04637); assay: TOX21_p53_BLA_p3_ratio: Tox21 HCT-116 p53 Agonism Beta-lactamase Assay, Ratio, Phase 3 (AID 2283596)
# Procedure, shortened: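 Cells were seeded at 4000/well, rested 5 h at 37C, then dosed with DMSO compound solutions (217-fold dilution) for 16 h. CCF4-AM substrate was loaded for 2 h at room temperature, and the 460/530 nm emission ratio was fitted for gain of signal versus DMSO.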
# [8] = biological target: Peroxisome proliferator-activated receptor gamma (Homo sapiens) (UniProt P37231); assay: OT_PPARg_PPARgSRC1_0480: Odyssey Thera (OT) 8-hour Protein-Complementation Assay for Peroxisome Proliferator-activated Receptor Gamma / SRC-1 Co-activator (AID 2283387);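 also: nuclear to cytoplasmic split Venus YFP fluorescence ratio reporting PPARg SRC-1 interaction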
# Procedure, shortened: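 Protein-fragment complementation in HEK293T: Venus YFP halves (residues 1-158, 159-239, mutated to IFP1/IFP2) fused to PPARg/SRC-1. 8 h exposure; N/C ratio at 488 nm; DMSO negative control.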
# [9] = LTEA_HepaRG_LDH_cytotoxicity: Cytotoxicity Assessment in the Life Technologies and Expression Analysis (LTEA) Assay (AID 2283563);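 as to AC50: LDH activity released into spent culture medium as a marker of cell death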
# Procedure, shortened: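 LDH release into culture medium read after 48 h chemical treatment of HepaRG cells. Duplicate wells, eight-point half-log series topping at 100 uM, 0.5% DMSO vehicle and baseline.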
# [10] = biological target: Peroxisome proliferator-activated receptor gamma (Homo sapiens) (UniProt P37231); assay: OT_PPARg_PPARgSRC1_1440: Odyssey Thera (OT) 24-hour Protein-Complementation Assay for Peroxisome Proliferator-activated Receptor Gamma/ SRC-1 Co-activator (AID 2283388);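 also: nuclear to cytoplasmic ratio of reconstituted Venus YFP fluorescence in fixed imaged cells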
# Procedure, shortened: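 Readout is the 488 nm N/C fluorescence ratio from fixed, Draq5-stained HEK293T cells after 24 h compound exposure. Cells carried transiently transfected PPARg and SRC-1 fused to Venus fragments, transfected 48 h before treatment.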
compound,measurement,setting,value
O=S1(=O)CCCO1,outcome,[1],inactive
same,AC50,[2],inconclusive: 50 µM
same,outcome,[3],inactive
same,AC50,[4],inconclusive: 13.8 µM
same,outcome,[4],inactive
same,AC50,[5],inconclusive: 700 nM and inconclusive: 46.2 µM
[Na+],AC50,[1],inconclusive: 50 µM
same,outcome,[2],inactive
same,AC50,[4],inconclusive: 46.1 µM
same,AC50,[6],inconclusive: 46.1 µM
O=C(Cl)c1cccc(C(=O)Cl)c1,outcome,[1],inactive
same,AC50,[2],inconclusive: 50 µM
same,outcome,[3],inactive
same,AC50,[6],active: 46.1 µM
same,AC50,[5],inconclusive: 46.1 µM
same,AC50,[7],inconclusive: 46.1 µM
O=C(NS(=O)(=O)/C=C/c1cccs1)c1ccc(F)cc1Br,AC50,[1],active: 29.6 µM
same,AC50,[2],active: 17.3 µM
same,AC50,[3],inconclusive: 100 µM
CCCCCCCCCCCCN1CCCC1=O,AC50,[1],active: 12.4 µM and inconclusive: 87.1 µM
same,AC50,[2],active: 11.7 µM and inconclusive: 16.9 µM
same,AC50,[8],inconclusive: 88.6 µM
same,AC50,[5],active: 69.8 µM
CCC(C)=NO,AC50,[1],inconclusive: 50 µM
same,AC50,[2],inconclusive: 3.62 µM
same,AC50,[3],inconclusive: 2.17 µM
same,AC50,[4],inconclusive: 3.29e-05 µM
same,AC50,[6],inconclusive: 45.5 µM
same,outcome,[6],inactive
same,AC50,[5],inconclusive: 45.5 µM
C=CC(C)(O)CCC=C(C)C (stereo unspecified),outcome,[1],inactive
same,AC50,[2],inconclusive: 50 µM
same,AC50,[3],inconclusive: 100 µM
CC12CCC(C1)C(C)(C)C2O (stereo unspecified),outcome,[1],inactive
same,outcome,[2],inactive
same,outcome,[4],inactive
CCCCCCCCCCN,AC50,[1],active: 59.8 µM
same,AC50,[2],active: 78.2 µM
same,outcome,[3],inactive
same,AC50,[4],inconclusive: 46.1 µM
same,outcome,[4],inactive
same,AC50,[5],inconclusive: 0.00154 µM
CC(C)CC(C)(O)C#CC(C)(O)CC(C)C (stereo unspecified),AC50,[1],inconclusive: 50 µM
same,AC50,[2],inconclusive: 50 µM and inconclusive: 91.7 µM
same,outcome,[9],inactive
same,outcome,[3],inactive
same,AC50,[4],inconclusive: 45.3 µM
same,AC50,[7],inconclusive: 46.1 µM
same,outcome,[7],inactive
C=CCOC(Cn1ccnc1)c1ccc(Cl)cc1Cl (stereo unspecified),AC50,[1],active: 58.3 µM and active: 85.7 µM
same,AC50,[2],active: 78.5 µM and active: 79 µM
same,AC50,[10],inconclusive: 33.8 µM
CCCCCCCCCCCC[N+](C)(C)C,AC50,[1],inconclusive: 37.6 µM and inconclusive: 41.9 µM
same,AC50,[2],inconclusive: 23.6 µM and inconclusive: 14.6 µM
same,outcome,[10],inactive
same,AC50,[4],active: 85.2 µM and active: 79.6 µM and active: 73.5 µM
same,AC50,[6],active: 14.7 µM and active: 14.2 µM and active: 14.1 µM
same,AC50,[5],active: 85.3 µM
same,AC50,[7],active: 21 µM and active: 16 µM and active: 46.1 µM
O=C(O)c1ccc(C(=O)O)cc1,AC50,[1],inconclusive: 1.19 µM
same,outcome,[2],inactive
same,outcome,[3],inactive
same,AC50,[5],inconclusive: 0.00208 µM
O=C(Nc1ccc([N+](=O)[O-])cc1Cl)c1cc(Cl)ccc1O,AC50,[1],active: 1.19 µM
same,AC50,[2],active: 1.45 µM
same,AC50,[4],active: 129 nM and active: 152 nM
same,AC50,[6],active: 234 nM and active: 140 nM
same,AC50,[5],active: 159 nM and active: 156 nM
CCCCCCCCOS(=O)(=O)O,AC50,[1],inconclusive: 50 µM
same,AC50,[2],inconclusive: 50 µM
same,AC50,[3],inconclusive: 100 µM
same,AC50,[7],inconclusive: 86.9 µM
c1ccc(C[n+]2cccc3ccccc32)cc1,AC50,[1],inconclusive: 50 µM
same,AC50,[2],inconclusive: 21 µM
same,outcome,[3],inactive
COc1cc(C(C)C)c2c(c1)S(=O)(=O)N(COc1cc(=O)n3cccc(OCCN4CCCCC4)c3n1)C2=O,AC50,[1],active: 3.02 µM and active: 4 µM
same,AC50,[2],active: 2.9 µM
same,AC50,[9],active: 19.2 µM
c1ccc2ncccc2c1,AC50,[1],inconclusive: 5.19 µM
same,AC50,[2],inconclusive: 50 µM
same,AC50,[3],inconclusive: 100 µM
same,AC50,[4],inconclusive: 46.1 µM
same,AC50,[6],inconclusive: 46.2 µM
same,AC50,[5],inconclusive: 46.1 µM
same,AC50,[7],inconclusive: 46.2 µM
CCCCCCCCCCCCN,AC50,[1],active: 11 µM
same,AC50,[2],active: 10.6 µM
same,AC50,[3],active: 68.9 µM and active: 58.2 µM
same,AC50,[4],active: 51.6 µM
same,outcome,[4],inactive
same,AC50,[5],active: 80.4 µM and inconclusive: 476 nM and active: 66.7 µM
same,outcome,[7],inactive

# Reference: PubChem BioAssay (EPA / NIEHS)
